The record followed here is article PMC5217387.

Amino acid sequences for entries named in this document (tags omitted). Residues count along the entry.
UniProt P12763, residues 19-359: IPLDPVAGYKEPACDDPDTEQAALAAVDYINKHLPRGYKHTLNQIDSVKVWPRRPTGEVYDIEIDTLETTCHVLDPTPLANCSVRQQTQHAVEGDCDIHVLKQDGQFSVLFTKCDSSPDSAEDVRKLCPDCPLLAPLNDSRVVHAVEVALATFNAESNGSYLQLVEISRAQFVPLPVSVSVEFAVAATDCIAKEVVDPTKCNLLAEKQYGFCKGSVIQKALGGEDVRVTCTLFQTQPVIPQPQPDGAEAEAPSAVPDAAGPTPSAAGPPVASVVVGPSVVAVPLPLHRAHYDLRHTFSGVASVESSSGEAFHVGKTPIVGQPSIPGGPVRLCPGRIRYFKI

These are yes or no findings as the source states them, for the method shown. Binding seen in cells or lysates may run through a third protein. Here binding means that the protein was enriched with, or labelled near, the bait; the list need not be complete.

In the test the target is fetuin (bovine) (UniProt P12763). In words: affinity purification with mass spectrometry; 1 mg purified host protein (fibronectin, plasminogen, actin or fetuin) biotinylated and bound to avidin agarose; incubated 16 h at 4 °C with M. pneumoniae lysate (1% C7BzO in PBS pH 7.8); washed with PBS; eluted with 7 M urea, 2 M thiourea, 40 mM Tris-HCl, 1% C7BzO; eluate size-fractionated by 1D SDS-PAGE, in-gel trypsin digest, LC-MS/MS; only the target purified.

B1: P90 (Mpn142 Fragment 2) (domain or fragment, UniProt Q50341 446-1218)
chain: AVTVVAGPLRAGNSSETDALPNVITQLYHTSTAQLAYLNGQIVVMGSDRVPSLWYWVVGEDQESGKATWWAKTELNWGTDKQKQFVENQLGFKDDSNSDSKNSNLKAQGLTQPAYLIAGLDVVADHLVFAAFKAGAVGYDMTTDSSASTYNQALAWSTTAGLDSDGGYKALVENTAGLNGPINGLFTLLDTFAYVTPVSGMKGGSQNNEEVQTTYPVKSDQKATAKIASLINASPLNSYGDDGVTVFDALGLNFNFKLNEERLPSRTDQLLVYGIVNESELKSARENAQSTSDDNSNTKVKWTNTASHYLPVPYYYSANFPEAGNRRRAEQRNGVKISTLESQATDGFANSLLNFGTGLKAGVDPAPVARGHKPNYSAVLLVRGGVVRLNFNPDTDKLLDSTDKNSEPISFSYTPFGSAESAVDLTTLKDVTYIAESGLWFYTFDNGEKPTYDGKQQQVKNRKGYAVITVSRTGIEFNEDANTTTLSQAPAALAVQNGIASSQDDLTGILPLSDEFSAVITKDQTWTGKVDIYKNTNGLFEKDDQLSENVKRRDNGLVPIYNEGIVDIWGRVDFAANSVLQARNLTDKTVDEVINNPDILQSFFKFTPAFDNQRAMLVGEKTSDTTLTVKPKIEYLDGNFYGEDSKIAGIPLNIDFPSRIFAGFAALPSWVIPVSVGSSVGILLILLILGLGIGIPMYKVRKLQDSSFVDVFKKVDTLTTAVGSVYKKIITQTSVIKKAPSALKAANNAAPKAPVKPAAPTAPRPPVQPPKKA
Regarding B1, the binding entry is reported as “binds”.

B2: Mpn142 Fragment 8 (domain or fragment, UniProt Q50341 1022-1218)
chain: NSVLQARNLTDKTVDEVINNPDILQSFFKFTPAFDNQRAMLVGEKTSDTTLTVKPKIEYLDGNFYGEDSKIAGIPLNIDFPSRIFAGFAALPSWVIPVSVGSSVGILLILLILGLGIGIPMYKVRKLQDSSFVDVFKKVDTLTTAVGSVYKKIITQTSVIKKAPSALKAANNAAPKAPVKPAAPTAPRPPVQPPKKA
Turning to B2, the binding entry was “binds”.

B3: Mpn142 Fragment 12 (domain or fragment, UniProt Q50341 982-1218)
chain: NGLFEKDDQLSENVKRRDNGLVPIYNEGIVDIWGRVDFAANSVLQARNLTDKTVDEVINNPDILQSFFKFTPAFDNQRAMLVGEKTSDTTLTVKPKIEYLDGNFYGEDSKIAGIPLNIDFPSRIFAGFAALPSWVIPVSVGSSVGILLILLILGLGIGIPMYKVRKLQDSSFVDVFKKVDTLTTAVGSVYKKIITQTSVIKKAPSALKAANNAAPKAPVKPAAPTAPRPPVQPPKKA
In the case of B3, the binding result is “binds”.

B4: Mpn142 Fragment 1 (domain or fragment, UniProt Q50341 26-308)
chain: NTYLLQDHNTLTPYTPFTTPLNGGLDVVRAAHLHPSYELVDWKRVGDTKLVALVRSALVRVKFQDTTSSDQSNTNQNALSFDTQESQKALNGSQSGSSDTSGSNSQDFASYVLIFKAAPRATWVFERKIKLALPYVKQESQGSGDQGSNGKGSLYKTLQDLLVEQPVTPYTPNAGLARVNGVAQDTVHFGSGQESSWNSQRSQKGLKNNPGPKAVTGFKLDKGRAYRKLNESWPVYEPLDSTKEGKGKDESSWKNSEKTTAENDAPLVGMVGSGAAGSASSLQ
Regarding B4, the binding result is “binds”.

B5: Mpn142 Fragment 5 (domain or fragment, UniProt Q50341 775-1218)
chain: EQRNGVKISTLESQATDGFANSLLNFGTGLKAGVDPAPVARGHKPNYSAVLLVRGGVVRLNFNPDTDKLLDSTDKNSEPISFSYTPFGSAESAVDLTTLKDVTYIAESGLWFYTFDNGEKPTYDGKQQQVKNRKGYAVITVSRTGIEFNEDANTTTLSQAPAALAVQNGIASSQDDLTGILPLSDEFSAVITKDQTWTGKVDIYKNTNGLFEKDDQLSENVKRRDNGLVPIYNEGIVDIWGRVDFAANSVLQARNLTDKTVDEVINNPDILQSFFKFTPAFDNQRAMLVGEKTSDTTLTVKPKIEYLDGNFYGEDSKIAGIPLNIDFPSRIFAGFAALPSWVIPVSVGSSVGILLILLILGLGIGIPMYKVRKLQDSSFVDVFKKVDTLTTAVGSVYKKIITQTSVIKKAPSALKAANNAAPKAPVKPAAPTAPRPPVQPPKKA
B5: the binding entry is given as “binds”.

B6: Mpn142 Fragment 9 (domain or fragment, UniProt Q50341 696-1218)
chain: GLNFNFKLNEERLPSRTDQLLVYGIVNESELKSARENAQSTSDDNSNTKVKWTNTASHYLPVPYYYSANFPEAGNRRRAEQRNGVKISTLESQATDGFANSLLNFGTGLKAGVDPAPVARGHKPNYSAVLLVRGGVVRLNFNPDTDKLLDSTDKNSEPISFSYTPFGSAESAVDLTTLKDVTYIAESGLWFYTFDNGEKPTYDGKQQQVKNRKGYAVITVSRTGIEFNEDANTTTLSQAPAALAVQNGIASSQDDLTGILPLSDEFSAVITKDQTWTGKVDIYKNTNGLFEKDDQLSENVKRRDNGLVPIYNEGIVDIWGRVDFAANSVLQARNLTDKTVDEVINNPDILQSFFKFTPAFDNQRAMLVGEKTSDTTLTVKPKIEYLDGNFYGEDSKIAGIPLNIDFPSRIFAGFAALPSWVIPVSVGSSVGILLILLILGLGIGIPMYKVRKLQDSSFVDVFKKVDTLTTAVGSVYKKIITQTSVIKKAPSALKAANNAAPKAPVKPAAPTAPRPPVQPPKKA
Consider B6, for which the binding entry was “binds”.
